Laboratory results reported in the supplement of paper PMC8728848.
Some of the results follow.

Tests used:
Experiment in all cases: glycan array binding signal (z-score within array); higher = stronger binding
Conditions in all cases: glycan notation: IUPAC condensed, linker removed
[1] = target: Fuc(a1-2)Gal(b1-4)GlcNAc(b1-3)Gal(b1-4)GlcNAc(b1-2)Man(a1-3)[Fuc(a1-2)Gal(b1-4)GlcNAc(b1-3)Gal(b1-4)GlcNAc(b1-2)Man(a1-6)]Man(b1-4)GlcNAc(b1-4)GlcNAc
Procedure, shortened: (§1)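 From the Consortium for Functional Glycomics database, 3228 arrays were curated, keeping only those whose protein sequence was available. Binding is given as a within-array Z-score averaged across arrays sharing a protein sequence and across linkers. Negative Z-scores can be read as non-binding.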

[2] = target: Fuc(a1-2)Gal(b1-4)GlcNAc(b1-3)Gal(b1-4)GlcNAc(b1-3)Gal(b1-4)GlcNAc
Procedure, shortened: as §1

[3] = target: Fuc(a1-2)Gal(b1-4)GlcNAc(b1-3)GalNAc
Procedure, shortened: as §1

[4] = target: Fuc(a1-2)Gal(b1-4)GlcNAc(b1-3)[Fuc(a1-2)Gal(b1-4)GlcNAc(b1-6)]GalNAc
Procedure, shortened: as §1

[5] = target: Fuc(a1-2)Gal(b1-4)GlcNAc(b1-3)[Fuc(a1-3)[Gal(b1-4)]GlcNAc(b1-6)]Gal(b1-4)Glc
Procedure, shortened: as §1

[6] = target: Fuc(a1-2)Gal(b1-4)GlcNAc(b1-6)GalNAc
Procedure, shortened: as §1

[7] = target: Fuc(a1-2)Gal(b1-4)GlcNAc6S
Procedure, shortened: as §1

[8] = target: Fuc(a1-2)Gal(b1-4)[Fuc(a1-3)]GlcNAc
Procedure, shortened: as §1

[9] = target: Fuc(a1-2)Gal(b1-4)[Fuc(a1-3)]GlcNAc(b1-2)Man(a1-3)[Fuc(a1-2)Gal(b1-4)[Fuc(a1-3)]GlcNAc(b1-2)Man(a1-6)]Man(b1-4)GlcNAc(b1-4)[Fuc(a1-6)]GlcNAc
Procedure, shortened: as §1

[10] = target: Fuc(a1-2)Gal(b1-4)[Fuc(a1-3)]GlcNAc(b1-2)[Fuc(a1-2)Gal(b1-4)[Fuc(a1-3)]GlcNAc(b1-4)]Man(a1-3)[Fuc(a1-2)Gal(b1-4)[Fuc(a1-3)]GlcNAc(b1-2)Man(a1-6)]Man(b1-4)GlcNAc(b1-4)GlcNAc
Procedure, shortened: as §1

[11] = target: Fuc(a1-2)Gal(b1-4)[Fuc(a1-3)]GlcNAc(b1-3)Gal(b1-4)[Fuc(a1-3)]GlcNAc
Procedure, shortened: as §1

[12] = target: Fuc(a1-2)Gal(b1-4)[Fuc(a1-3)]GlcNAc(b1-3)Gal(b1-4)[Fuc(a1-3)]GlcNAc(b1-3)Gal(b1-4)[Fuc(a1-3)]GlcNAc
Procedure, shortened: as §1

[13] = target: Fuc(a1-2)Gal(b1-4)[Fuc(a1-3)]GlcNAc(b1-3)GalNAc
Procedure, shortened: as §1

[14] = target: Fuc(a1-2)Gal(b1-4)[Fuc(a1-3)]GlcNAc(b1-3)[Neu5Ac(a2-6)Gal(b1-4)GlcNAc(b1-6)]Gal(b1-4)Glc
Procedure, shortened: as §1

[15] = target: Fuc(a1-2)Gal3S(b1-4)GlcNAc
Procedure, shortened: as §1

[16] = target: Fuc(a1-2)Gal6S(b1-3)GlcNAc
Procedure, shortened: as §1

[17] = target: Fuc(a1-2)Gal6S(b1-3)GlcNAc6S
Procedure, shortened: as §1

Fuc(a1-2)Gal6S(b1-4)Glc = target: Fuc(a1-2)Gal6S(b1-4)Glc
Procedure, shortened: as §1

[18] = target: Fuc(a1-2)Gal6S(b1-4)Glc6S
Procedure, shortened: as §1

Fuc(a1-2)[Gal(a1-3)]Gal = target: Fuc(a1-2)[Gal(a1-3)]Gal
Procedure, shortened: as §1

[19] = target: Fuc(a1-2)[Gal(a1-3)]Gal(b1-3)GalNAc
Procedure, shortened: as §1

[20] = target: Fuc(a1-2)[Gal(a1-3)]Gal(b1-3)GalNAc(b1-3)Gal(a1-4)Gal(b1-4)Glc
Procedure, shortened: as §1

[21] = target: Fuc(a1-2)[Gal(a1-3)]Gal(b1-3)GlcNAc
Procedure, shortened: as §1

[22] = target: Fuc(a1-2)[Gal(a1-3)]Gal(b1-3)GlcNAc(b1-2)Man(a1-3)[Fuc(a1-2)[Gal(a1-3)]Gal(b1-3)GlcNAc(b1-2)Man(a1-6)]Man(b1-4)GlcNAc(b1-4)GlcNAc
Procedure, shortened: as §1

[23] = target: Fuc(a1-2)[Gal(a1-3)]Gal(b1-3)GlcNAc(b1-2)Man(a1-3)[Fuc(a1-2)[Gal(a1-3)]Gal(b1-3)GlcNAc(b1-2)Man(a1-6)]Man(b1-4)GlcNAc(b1-4)[Fuc(a1-6)]GlcNAc
Procedure, shortened: as §1

[24] = target: Fuc(a1-2)[Gal(a1-3)]Gal(b1-3)GlcNAc(b1-3)GalNAc
Procedure, shortened: as §1

[25] = target: Fuc(a1-2)[Gal(a1-3)]Gal(b1-3)GlcNAc(b1-6)GalNAc
Procedure, shortened: as §1

[26] = target: Fuc(a1-2)[Gal(a1-3)]Gal(b1-4)Glc
Procedure, shortened: as §1

[27] = target: Fuc(a1-2)[Gal(a1-3)]Gal(b1-4)GlcNAc
Procedure, shortened: as §1

[28] = target: Fuc(a1-2)[Gal(a1-3)]Gal(b1-4)GlcNAc(b1-2)Man
Procedure, shortened: as §1

B1: AT1G80310(18) (Arabidopsis thaliana), Q0WP36 (protein)
chain: METTTTPLLPGDRSRCGWLRRRLRLKNPLSSELSGAVGDLGTFIPIVLTLTLVSNLDLSTTLIFTGFYNIATGLLFDIPMPVQPMKSIAAVAVSESPHLTPSQIAAAGASTAATLLLLGATGAMSFLYNIIPLPVVRGVQLSQGLQFAFTAIKYVRFNYDTATLKPSSSPRIWLGLDGLILALAALLFIILSTGSGNDREAEDGDLAETSSNESQSRRRRLRLLSSIPSALIVFALGLVLCFIRDPSIFKDLKFGPSKFHILRISWDDWKIGFLRAAIPQIPLSVLNSVIAVCKLSNDLFDKELSATTVSISVGVMNLIGCWFGAMPVCHGAGGLAGQYRFGARSGLSVIFLGIGKLIVGLVFGNSFVRILSQFPIGILGVLLLFAGIELAMASKDMNSKEDSFIMLVCAAVSMTGSSAALGFGCGVVLYLLLKLRTLDCSSVTLFSRSSDESQVDSEAAPRDV
Q: For B1, which “glycan array binding signal (z-score)” value [1] is on record?
A: Its value is -0.895.

Q: And the “glycan array binding signal (z-score)” value [2]?
A: The value was -0.682.

Q: And the “glycan array binding signal (z-score)” value [3]?
A: The value was -0.108.

Q: What about the “glycan array binding signal (z-score)” value [4] of the same binder?
A: The value was 0.42.

Q: And the “glycan array binding signal (z-score)” value [5]?
A: Its value is 0.009.

Q: And the “glycan array binding signal (z-score)” value [6]?
A: The value was -0.777.

Q: And the “glycan array binding signal (z-score)” value [7]?
A: Its value is -0.914.

Q: What about the “glycan array binding signal (z-score)” value [8] of the same binder?
A: Its value is -0.396.

Q: What about the “glycan array binding signal (z-score)” value [9] of the same binder?
A: The value was 0.455.

Q: And the “glycan array binding signal (z-score)” value [10]?
A: Its value is -0.219.

Q: And the “glycan array binding signal (z-score)” value [11]?
A: Its value is -0.776.

Q: What about the “glycan array binding signal (z-score)” value [12] of the same binder?
A: The value was 0.554.

Q: And the “glycan array binding signal (z-score)” value [13]?
A: Its value is 0.061.

Q: What about the “glycan array binding signal (z-score)” value [14] of the same binder?
A: The value was 0.312.

Q: And the “glycan array binding signal (z-score)” value [15]?
A: The value was -0.402.

Q: What about the “glycan array binding signal (z-score)” value [16] of the same binder?
A: Its value is -0.426.

Q: And the “glycan array binding signal (z-score)” value [17]?
A: Its value is -0.253.

Q: And the “glycan array binding signal (z-score)” value (Fuc(a1-2)Gal6S(b1-4)Glc)?
A: The value was 0.666.

Q: What about the “glycan array binding signal (z-score)” value [18] of the same binder?
A: Its value is 0.09.

Q: What about the “glycan array binding signal (z-score)” value (Fuc(a1-2)[Gal(a1-3)]Gal) of the same binder?
A: Its value is 0.01.

Q: And the “glycan array binding signal (z-score)” value [19]?
A: The value was -0.789.

Q: What about the “glycan array binding signal (z-score)” value [20] of the same binder?
A: Its value is -0.21.

Q: What about the “glycan array binding signal (z-score)” value [21] of the same binder?
A: The value was 2.6.

Q: And the “glycan array binding signal (z-score)” value [22]?
A: Its value is -0.019.

Q: And the “glycan array binding signal (z-score)” value [23]?
A: The value was -0.31.

Q: And the “glycan array binding signal (z-score)” value [24]?
A: Its value is -0.354.

Q: And the “glycan array binding signal (z-score)” value [25]?
A: The value was 1.91.

Q: What about the “glycan array binding signal (z-score)” value [26] of the same binder?
A: Its value is 0.522.

Q: What about the “glycan array binding signal (z-score)” value [27] of the same binder?
A: Its value is -0.409.

Q: And the “glycan array binding signal (z-score)” value [28]?
A: The value was -0.355.
